# Experimental data reported in the supplement of paper PMC3334620.
# In all, about 33,000 sequences were measured (“E-score (-0.5 to 0.5)”: median about -0.0014, highest 2% from about 0.25 on). This is one part of the list.
# Target: T1, Cad1 (UniProt P24813)
# T1 sequence: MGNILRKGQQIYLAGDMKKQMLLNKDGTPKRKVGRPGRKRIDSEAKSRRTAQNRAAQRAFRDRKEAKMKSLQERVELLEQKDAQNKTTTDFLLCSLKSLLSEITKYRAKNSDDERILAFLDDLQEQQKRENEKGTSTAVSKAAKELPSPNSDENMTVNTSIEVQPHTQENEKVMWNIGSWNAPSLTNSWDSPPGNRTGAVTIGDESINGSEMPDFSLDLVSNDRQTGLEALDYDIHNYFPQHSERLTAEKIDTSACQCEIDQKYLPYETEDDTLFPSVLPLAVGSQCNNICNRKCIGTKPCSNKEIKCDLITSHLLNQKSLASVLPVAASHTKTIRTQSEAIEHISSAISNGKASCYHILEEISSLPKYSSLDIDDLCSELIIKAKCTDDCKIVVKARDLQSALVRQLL
# Test: PBM E-score (8-mer binding enrichment) (E-score (-0.5 to 0.5)); higher = stronger / more preferred TF binding
# Details: protein concentration: 100 nM; construct: GST-full length
# Outline: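 For each ungapped eight-base word taken together with its reverse complement, the Universal PBM Analysis Suite assigned an E-score. Binding data came from GST-tagged yeast transcription factors, applied at about 100-200 nM, on universal all-10-mer Agilent arrays made double-stranded by primer extension. Fluorescent anti-GST marked bound protein, and scans were normalised with masliner.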
row,Sequence,PBM E-score
1,ATTCCAGG,-0.0271
2,ACCTGTAC,-0.0708
3,GATCCGCA,-0.0378
4,CCCGCATC,-0.24
5,AGGCTGTC,-0.289
6,TACGGCAA,0.2
7,CCAGGGTC,-0.269
8,CGAACGAC,0.0659
9,CCTGACAA,-0.0066
10,CCATTCTA,-0.0256
11,AGTACCTG,-0.0799
12,CGAAAATC,0.259
13,TATCGTCA,0.0719
14,ACGCGGCT,-0.0787
15,AGCTACAT,-0.0024
16,ACTTCGTG,-0.141
17,CCACTCCA,-0.0933
18,CATTGCCA,-0.0605
19,CGAGATCA,0.0902
20,TCAAGCAA,-0.128
21,AGCCGACG,-0.0624
22,CTTCGGGA,-0.0798
23,CCGCGTGA,0.156
24,CCATGGCG,0.187
25,CCGATTGA,0.144

row,Sequence,PBM E-score
1,AACGTGAT,0.00627
2,AAATTTTA,0.234
3,GCGCCACA,0.0679
4,AGACGCCC,-0.118
5,CCAAAATC,0.169
6,CCTATCCC,0.0551
7,AATTACAG,0.161
8,ATGTGCCA,0.0507
9,ATCCTGAG,0.13
10,CCACTGGA,0.00141
11,CTTAAAGC,0.0884
12,GCGTTAAA,-0.0607
13,AAACCAAT,0.134
14,GGAAACCC,0.0386
15,GCCTTTCC,-0.18
16,GCATATCA,0.278
17,AGCAGTAT,0.1
18,AACGTATT,0.0985
19,GGGGAGAC,-0.357
20,CAGCTAAA,-0.121
21,CAACATGA,0.144
22,CACAGTGC,0.0584
23,ATCCACTA,0.127
24,CTCCCGAA,-0.14
25,CTTCACGC,0.26

row,Sequence,PBM E-score
1,CCTTTCCG,-0.00857
2,AACTCAGA,0.0846
3,AAAATGCA,-0.13
4,ATCCCAGC,-0.127
5,CTTACCTC,-0.0709
6,ACGCTGCG,-0.0632
7,CGAAAAAA,0.178
8,AGCCACTC,-0.137
9,GGCATAGA,-0.0491
10,GATGTTAC,0.0872
11,AAGTAGTC,0.0212
12,CAAGGCCG,0.0901
13,CGCTGCAG,-0.0252
14,TCAGAGGA,-0.0809
15,AAGTGGCT,-0.0711
16,CGTCCCTC,-0.0857
17,CCGTTTCC,-0.029
18,CATGTTCG,-0.00821
19,GGGATGGA,-0.0694
20,TAACGTGA,-0.147
21,CCGAAAGC,-0.218
22,GCAGACTA,-0.03
23,CGAAGCAA,0.0503
24,ACCCAGTC,-0.139
25,CCTCAACA,0.0958

row,Sequence,PBM E-score
1,CGCTCAAG,-0.15
2,TCCCAACA,-0.0655
3,AGTCCTAT,0.0597
4,CACACTGC,-0.0205
5,CAGTTCCA,0.134
6,AAAATCAC,0.132
7,CCCGCGAG,0.011
8,CGAACCAA,0.0391
9,AAAGTTCG,0.066
10,GGACTTAA,-0.0564
11,ATTTGCTA,0.186
12,AAAATTTT,0.234
13,AACCGTAG,-0.177
14,GTAGAAAC,-0.154
15,AAGGTGAA,-0.00719
16,AGTCAAGA,0.121
17,CAAGCCCG,-0.153
18,ACTTATAA,0.279
19,TCTGAGAA,0.00624
20,ATAAGTCA,0.198
21,GAAGTTAC,0.0685
22,CCAATACA,0.0869
23,GATTGTAC,-0.082
24,AGTAGCAG,0.0208
25,ATCGCGAG,0.264

row,Sequence,PBM E-score
1,GGGAGCAC,-0.208
2,CACCATAA,-0.00975
3,TACCAGCA,0.0626
4,ATCATTCG,0.141
5,AGATGGCG,0.101
6,ACCTGTGA,0.126
7,AGGTGTGG,-0.142
8,GTCTAGGA,-0.092
9,GTATTTTA,0.17
10,AGTAAATG,0.111
11,AACGATCC,-0.105
12,ACTTTGAG,-0.0793
13,CAAGCCGC,-0.146
14,ATTGCATG,0.16
15,GCTTTGTA,0.223
16,CCCTGCCC,-0.359
17,AATGGTCG,0.0575
18,AAGGGGGT,-0.389
19,CAGTCCTC,-0.274
20,ATCCCGTC,-0.0534
21,ACGGTACA,0.0323
22,CAAAGGAG,-0.0961
23,CATGACGA,-0.0124
24,TCATGAGA,0.00213
25,CACTGATG,-0.0345

row,Sequence,PBM E-score
1,GCGCCGTA,0.23
2,GACGGCCA,0.0269
3,ATAAAGAG,-0.00445
4,AAACGTGT,0.0428
5,GTATTGAC,-0.0498
6,ACGACCGA,-0.00871
7,GGGGAAAC,-0.0901
8,CTCATGGA,-0.0362
9,ATCCAATG,-0.111
10,AAGAGACC,0.073
11,GGGATGTA,-0.0343
12,CCAGGAGC,-0.269
13,GACACTCC,0.0191
14,GACACATC,0.0666
15,AAGAGCCA,0.0145
16,CTGCGATA,0.0524
17,CCTTTTAA,-0.088
18,AAGTCCGA,-0.107
19,AGATACGG,0.0164
20,TAAAGGGA,-0.0259
21,GATATAGC,0.0534
22,CAAGCCCA,-0.216
23,CAATCGAA,0.0916
24,AAGCTGGA,-0.119
25,CACCATCA,0.0657

# 41 entries from above, bar-delimited:
row | Sequence | PBM E-score
7 | AGGTGTGG | -0.142
8 | GTCTAGGA | -0.092
9 | GTATTTTA | 0.17
10 | AGTAAATG | 0.111
11 | AACGATCC | -0.105
12 | ACTTTGAG | -0.0793
13 | CAAGCCGC | -0.146
14 | ATTGCATG | 0.16
15 | GCTTTGTA | 0.223
16 | CCCTGCCC | -0.359
17 | AATGGTCG | 0.0575
18 | AAGGGGGT | -0.389
19 | CAGTCCTC | -0.274
20 | ATCCCGTC | -0.0534
21 | ACGGTACA | 0.0323
22 | CAAAGGAG | -0.0961
23 | CATGACGA | -0.0124
24 | TCATGAGA | 0.00213
25 | CACTGATG | -0.0345
1 | GCGCCGTA | 0.23
2 | GACGGCCA | 0.0269
3 | ATAAAGAG | -0.00445
4 | AAACGTGT | 0.0428
5 | GTATTGAC | -0.0498
6 | ACGACCGA | -0.00871
7 | GGGGAAAC | -0.0901
8 | CTCATGGA | -0.0362
9 | ATCCAATG | -0.111
10 | AAGAGACC | 0.073
12 | CCAGGAGC | -0.269
13 | GACACTCC | 0.0191
14 | GACACATC | 0.0666
15 | AAGAGCCA | 0.0145
17 | CCTTTTAA | -0.088
19 | AGATACGG | 0.0164
20 | TAAAGGGA | -0.0259
21 | GATATAGC | 0.0534
22 | CAAGCCCA | -0.216
23 | CAATCGAA | 0.0916
24 | AAGCTGGA | -0.119
25 | CACCATCA | 0.0657

# Next part

row,Sequence,PBM E-score
1,AACTGGTG,-0.221
2,GTTTCTCA,-0.0493
3,TAGAGGCA,-0.166
4,CCACTAGA,-0.323
5,GCGATGGA,0.0841
6,AGTATATA,0.285
7,CGCCCCAC,-0.0786
8,AGCTTGCC,-0.044
9,AGGACTCC,-0.193
10,AACGAGCC,-0.0666
11,ATGCCCTA,-0.228
12,CCTCTTCG,-0.204
13,CTTGCCTC,-0.0541
14,CCCACGAG,-0.0632
15,ACGTGGAG,-0.0145
16,AGACTGTC,-0.152
17,CCGGCTAC,-0.103
18,CCAAATAG,0.0103
19,ATACTGAC,0.143
20,TCGAACGA,0.109
21,GAGGTATC,-0.162
22,CATAAATA,0.171
